Results deposited as PubChem BioAssay AID652272 (Drosophila RNAi Screening Center, 2013).
In all, the deposit lists about 21,000 reagents; shown is a random part of those that have a named target and a result. Of all reagents, 503 (2.4%) are marked active. 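Raw plate light values, not normalised; calls rest on replicate z-scores that were not deposited; hits include reporter decreases as well as increases.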 A number with no mark means an inactive call. Names joined by + are all predicted targets of the reagent. Not stated in the record: the amount of reagent, the time to read-out.

Test: 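Genome-wide knock-down search for components of Hedgehog signalling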 (primary screen)
Cell system: Drosophila clone 8 (Cl8) cells
Reagents: long dsRNA against Drosophila genes
Measurement: 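Plate reader light from a firefly reporter under a ptc promoter fragment that responds to Hedgehog, with Renilla light as transfection reference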
Reading the numbers: firefly Hh reporter signal: higher = more ptc reporter light; Renilla reference signal: higher = more Renilla control light
Call rule: 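Called a hit if the two-replicate mean z-score lies below -2 or above +3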
Calls: active = hit: reporter lowered or raised; inactive = not a hit

| gene knocked down | DRSC id | firefly Hh reporter signal, replicate 1 | firefly Hh reporter signal, replicate 2 | firefly Hh reporter signal, replicate 3 | Renilla reference signal, replicate 1 | Renilla reference signal, replicate 2 |
| --- | --- | --- | --- | --- | --- | --- |
| RpS10a (GeneID 43321) | DRSC14161 | 1.25e5 | 94176 | – | 2864 | 2705 |
| TfIIA-S (GeneID 42822) | DRSC16883 | 4.46e5 | 64295 | – | 22853 | 2109 |
| tank (GeneID 33684) | DRSC00461 | 1.00e5 | 56523 | – | 2755 | 5083 |
| AP-2mu (GeneID 42642) | DRSC14090 | 1.39e5 | 1.12e5 | – | 5568 | 4589 |
| CG18788 (GeneID 59164) | DRSC02697 | 88380 | 52235 | – | 2312 | 4416 |
| ems (GeneID 41697) | DRSC16941 | 1.01e5 | 66163 | – | 3672 | 2496 |
| Sas10 (GeneID 31447) | DRSC18355 | 69187 | 3.34e5 | – | 1724 | 13645 |
| CG3823 (GeneID 31573) | DRSC18325 | 76517 | 2.05e5 | – | 2209 | 6547 |
| CG34457 (GeneID 5740661) | DRSC06924 | 89738 | 40387 | – | 2305 | 3232 |
| Neos (GeneID 38795) | DRSC11235 | 87344 | 97522 | – | 3862 | 3765 |
| CG5039 (GeneID 43100) | DRSC15703 | 6.99e5 | 1.64e5 | – | 37814 | 5371 |
| Gclm (GeneID 248194) | DRSC15677 | 1.03e5 | 73292 | – | 4290 | 3155 |
| CG14440 (GeneID 31610) | DRSC17933 | 45776 | 1.47e5 | – | 1664 | 6166 |
| Act5C (GeneID 31521) | DRSC17723 | 39254 | 1.24e5 | – | 1376 | 5016 |
| Acp33A + CG15841 (retired record) | DRSC01859 | 1.03e5 | 56440 | – | 2820 | 5584 |
| Pex13 (GeneID 36462) | DRSC06877 | 81547 | 58892 | – | 3752 | 2723 |
| CG4835 (GeneID 38619) | DRSC10452 | 27692 | 35383 | – | 5340 | 3216 |
| Ir56c (GeneID 37251) | DRSC06544 | 74728 | 59659 | – | 1627 | 4631 |
| CG42579 (GeneID 8674025) | DRSC20391 | 6.75e5 | 2.70e5 | – | 38049 | 6566 |
| Klp67A (GeneID 39068) | DRSC11205 | 60458 | 48982 | 62752 | 4180 | 5218 |
| CG11498 (GeneID 43585) | DRSC14315 | 1.08e5 | 66998 | – | 4315 | 661 |
| CG30496 (GeneID 246652) | DRSC06805 | 1.20e5 | 1.06e5 | – | 5325 | 4193 |
| CG5986 (GeneID 192506) | DRSC15931 | 86804 | 70960 | – | 4166 | 3143 |
| CG31926 (GeneID 326174) | DRSC00295 | 1.07e5 | 56893 | – | 2624 | 1613 |
| CG11307 (GeneID 40400) | DRSC11648 | 1.54e5 | 1.66e5 | – | 6212 | 5798 |
| C1GalTA (GeneID 34215) | DRSC03246 | 71489 | 72925 | – | 3320 | 3384 |
| Sgt1 (GeneID 40982) | DRSC16519 | 60981 | 90096 | – | 2204 | 2788 |
| CG31275 (GeneID 326131) | DRSC16919 | 97072 | 1.26e5 | – | 3287 | 3408 |
| lectin-29Ca (GeneID 53547) | DRSC02635 | 70941 | 54817 | – | 2408 | 5264 |
| CR42545 (GeneID 8674105) | DRSC03709 | 86648 | 1.05e5 | – | 2002 | 7539 |
| CG12128 + CG1407 | DRSC06446 | 80523 | 97812 | – | 3825 | 4108 |
| CG17572 (GeneID 35182) | DRSC02629 | 64390 | 44459 | – | 1690 | 4610 |
| CG14933 + CG42486 | DRSC02415 | 1.50e5 | 75027 | – | 2535 | 6134 |
| CG8252 (GeneID 35884) | DRSC07126 | 78726 | 37344 | – | 2573 | 1448 |
| CG7299 (GeneID 34468) | DRSC03043 | 1.12e5 | 61344 | – | 1529 | 4194 |
| CG11885 (GeneID 33215) | DRSC00329 | 5.63e5 | 68808 | – | 2908 | 2908 |
| bnl (GeneID 42356) | DRSC13377 | 53221 | 3.08e5 | – | 10700 | 6493 |
| bnl (GeneID 42356) | DRSC16913 | 31232 | 1.10e5 | – | 1938 | 4469 |
| Cpr49Aa (GeneID 246413) | DRSC07197 | 93264 | 97251 | – | 2266 | 5378 |
